Reference: article PMC3185033
Results are given in words; binding and its absence hold for the method and conditions named. Binding seen in cells or lysates may run through a third protein. A yes stands for co-enrichment or nearness to the bait. Other partners may have been found.

The chains behind the UniProt entries cited, without tags or fusion partners.
UniProt Q04887: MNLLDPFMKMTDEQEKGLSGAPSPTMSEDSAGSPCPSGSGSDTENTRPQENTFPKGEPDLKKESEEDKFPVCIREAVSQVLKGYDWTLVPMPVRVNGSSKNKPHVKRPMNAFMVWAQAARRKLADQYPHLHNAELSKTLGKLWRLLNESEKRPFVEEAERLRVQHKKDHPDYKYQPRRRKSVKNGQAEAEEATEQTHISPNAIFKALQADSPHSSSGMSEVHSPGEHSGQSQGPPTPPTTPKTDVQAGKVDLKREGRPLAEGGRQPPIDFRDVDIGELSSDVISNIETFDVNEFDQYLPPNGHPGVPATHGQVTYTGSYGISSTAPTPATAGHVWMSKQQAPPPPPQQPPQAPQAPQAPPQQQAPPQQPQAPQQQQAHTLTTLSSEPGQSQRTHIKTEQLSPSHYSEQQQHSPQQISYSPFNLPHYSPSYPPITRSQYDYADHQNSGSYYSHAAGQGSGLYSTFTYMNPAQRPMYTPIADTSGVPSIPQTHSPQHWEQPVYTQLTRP
UniProt Q9C0E2: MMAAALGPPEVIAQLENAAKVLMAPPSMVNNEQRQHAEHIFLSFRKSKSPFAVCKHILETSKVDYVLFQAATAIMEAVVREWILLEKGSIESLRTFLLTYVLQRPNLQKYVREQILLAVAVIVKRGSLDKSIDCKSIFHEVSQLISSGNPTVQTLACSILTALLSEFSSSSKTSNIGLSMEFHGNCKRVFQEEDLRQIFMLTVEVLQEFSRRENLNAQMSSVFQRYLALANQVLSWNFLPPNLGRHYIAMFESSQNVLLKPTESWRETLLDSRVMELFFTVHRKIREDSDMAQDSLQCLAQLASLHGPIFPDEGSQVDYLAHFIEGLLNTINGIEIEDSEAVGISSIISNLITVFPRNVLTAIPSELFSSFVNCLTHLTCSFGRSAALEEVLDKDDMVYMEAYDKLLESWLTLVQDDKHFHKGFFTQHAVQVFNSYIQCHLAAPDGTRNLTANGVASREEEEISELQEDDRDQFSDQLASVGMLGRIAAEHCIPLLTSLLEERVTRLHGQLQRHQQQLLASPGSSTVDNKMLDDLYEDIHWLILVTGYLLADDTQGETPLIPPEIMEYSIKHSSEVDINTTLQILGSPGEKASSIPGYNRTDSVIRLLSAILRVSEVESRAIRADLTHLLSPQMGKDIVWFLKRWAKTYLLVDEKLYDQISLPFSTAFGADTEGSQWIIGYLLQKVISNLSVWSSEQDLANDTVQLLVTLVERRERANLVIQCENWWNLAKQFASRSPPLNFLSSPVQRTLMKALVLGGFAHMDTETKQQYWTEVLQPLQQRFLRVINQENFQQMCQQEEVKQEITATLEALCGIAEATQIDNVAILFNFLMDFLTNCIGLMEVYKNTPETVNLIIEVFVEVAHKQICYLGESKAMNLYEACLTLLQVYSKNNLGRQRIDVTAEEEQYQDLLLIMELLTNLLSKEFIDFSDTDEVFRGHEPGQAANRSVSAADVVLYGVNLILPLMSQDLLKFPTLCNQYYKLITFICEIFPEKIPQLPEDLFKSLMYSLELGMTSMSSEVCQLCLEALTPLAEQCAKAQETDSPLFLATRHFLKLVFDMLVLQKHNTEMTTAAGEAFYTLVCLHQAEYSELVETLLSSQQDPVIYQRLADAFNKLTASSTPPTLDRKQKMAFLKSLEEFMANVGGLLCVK

Biological target: FLAG-tagged Sox9 (full length) (mouse) (UniProt Q04887)
Assay: affinity purification with mass spectrometry; FLAG-Sox9 on anti-FLAG M2 agarose incubated with HeLa S3 nuclear extract 3 hr at 4°C; washed with B150 buffer (150 mM KCl, pH 8.0); eluted with glycine-HCl pH 2.5; NuPAGE, silver stain, MALDI-TOF MS of the band; only the target purified

exportin 4 (Exp4), endogenous in HeLa nuclear extract (from UniProt Q9C0E2 1-1151)
binding: binds
